{"source": "patent US7115651B2", "about": "“Macrocycles and uses thereof” (Sloan-Kettering Institute for Cancer Research, priority 2000, dated 2006)", "key": {"[1]": {"system": "Rb (retinoblastoma) positive cells", "assay": "cell cycle effect in Rb positive cells", "assay_type": "cell-based", "description": "Cell cycle distribution was assayed according to Nusse et al. with a Becton Dickinson fluorescence-activated cell sorter and analyzed by a Cell Cycle Multi-cycle system (Phoenix Flow System, San Diego, Calif., USA)."}, "[2]": {"system": "small cell lung cancer cell line with defective Rb function", "details": "previously shown; cited from earlier work"}}, "note": "At least one compound was matched to its structure with a doubt left.", "data": [{"compound": "COC1=C2C[C@@H](C)C[C@H](OC)[C@H](O)[C@@H](C)/C=C(\\C)[C@H](OC(N)=O)[C@@H](OC)/C=C\\C=C(/C)C(=O)NC(=CC1=O)C2=O", "note": "[geldanamycin]", "values": [{"measurement": "cell cycle block in Rb positive cells", "setting": "[1]", "result": "clear G1 (growth) phase block"}, {"measurement": "effectiveness against tumor cells with defective Rb function", "setting": "[2]", "result": "ineffective"}]}]}
